Results on one substance are retold here after PMC2991253.

Amino acid sequences for entries named in this document (tags omitted). Residues count along the entry.
UniProt Q02846, residues 52-1103: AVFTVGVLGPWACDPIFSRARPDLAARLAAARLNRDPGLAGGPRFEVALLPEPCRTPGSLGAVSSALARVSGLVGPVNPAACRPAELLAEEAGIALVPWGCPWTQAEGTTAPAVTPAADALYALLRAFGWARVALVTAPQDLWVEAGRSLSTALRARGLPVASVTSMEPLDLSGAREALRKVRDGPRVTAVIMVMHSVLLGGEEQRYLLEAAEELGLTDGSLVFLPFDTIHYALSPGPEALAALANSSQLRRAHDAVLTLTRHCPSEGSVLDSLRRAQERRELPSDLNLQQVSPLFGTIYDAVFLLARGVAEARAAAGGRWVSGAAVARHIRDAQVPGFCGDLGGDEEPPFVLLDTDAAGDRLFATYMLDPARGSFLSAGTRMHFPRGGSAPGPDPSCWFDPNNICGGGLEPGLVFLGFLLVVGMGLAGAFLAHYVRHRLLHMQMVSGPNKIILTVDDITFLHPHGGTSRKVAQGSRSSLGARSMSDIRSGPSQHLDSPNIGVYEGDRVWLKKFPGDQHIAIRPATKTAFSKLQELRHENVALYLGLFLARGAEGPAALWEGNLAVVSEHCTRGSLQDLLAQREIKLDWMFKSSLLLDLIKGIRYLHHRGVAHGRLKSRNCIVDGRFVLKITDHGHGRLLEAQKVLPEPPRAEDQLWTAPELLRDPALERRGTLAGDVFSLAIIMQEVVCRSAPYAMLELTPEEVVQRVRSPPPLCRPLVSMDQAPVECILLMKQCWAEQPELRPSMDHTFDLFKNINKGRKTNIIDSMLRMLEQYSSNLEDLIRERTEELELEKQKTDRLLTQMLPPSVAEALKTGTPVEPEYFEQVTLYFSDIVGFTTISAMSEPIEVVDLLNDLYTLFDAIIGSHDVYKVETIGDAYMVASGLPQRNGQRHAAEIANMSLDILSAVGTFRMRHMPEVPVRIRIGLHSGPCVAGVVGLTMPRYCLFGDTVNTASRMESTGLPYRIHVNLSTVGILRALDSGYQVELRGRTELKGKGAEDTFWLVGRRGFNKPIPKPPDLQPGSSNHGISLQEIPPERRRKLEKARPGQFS

The target in this experiment is T1, Ankmy2-1D4 (mouse Ankmy2 with the rhodopsin 1D4 epitope) (mouse) (UniProt Q3TPE9).
T1 sequence: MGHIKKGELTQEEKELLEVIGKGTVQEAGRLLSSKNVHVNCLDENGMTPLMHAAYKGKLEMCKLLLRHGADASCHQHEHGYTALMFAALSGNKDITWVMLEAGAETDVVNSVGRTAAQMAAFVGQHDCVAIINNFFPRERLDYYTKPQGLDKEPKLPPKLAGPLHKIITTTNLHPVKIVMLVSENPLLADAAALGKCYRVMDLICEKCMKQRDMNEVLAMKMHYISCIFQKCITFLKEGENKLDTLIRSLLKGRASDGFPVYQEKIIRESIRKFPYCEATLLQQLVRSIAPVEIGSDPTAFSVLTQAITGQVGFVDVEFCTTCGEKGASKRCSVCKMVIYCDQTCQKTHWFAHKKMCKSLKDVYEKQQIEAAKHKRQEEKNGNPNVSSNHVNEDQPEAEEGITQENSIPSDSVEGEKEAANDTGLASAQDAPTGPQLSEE
Kind of experiment: co-IP; HEK293 cells co-expressing Ankmy2-1D4 and GC1 or ABCA4; extract solubilized in 18 mM CHAPS in TBS (20 mM Tris, 150 mM NaCl, 1 mM EDTA, 1 mM MgCl2); Rho 1D4 antibody-Sepharose 2B, 4°C, one hour; eluted with 0.2 mg/ml 1D4 peptide; Western blot. (In general: A western blot detects proteins with antibodies after separation by electrophoresis.)

No constants are given. Whether binding was seen depends on the method and setting. In cells and extracts the contact can be indirect. Some results given as binding are weak or reduced against the parent protein; the word gives no strength.

As to “guanylate cyclase 1 (GC1), retinal guanylyl cyclase (from UniProt Q02846 52-1103) (enzyme)”, the binding entry was “binds”.
